The record followed here is patent US20240190970A1.

Amino acid sequences for entries named in this document (tags omitted). A change or cut given only in a name is not applied to a line headed by its entry. Chains listed by the source or under a name are the forms on record and can include a tag or linker.
recombinant, full length human Galectin-9 (R&D Systems 2045-GA) (O00182, form named): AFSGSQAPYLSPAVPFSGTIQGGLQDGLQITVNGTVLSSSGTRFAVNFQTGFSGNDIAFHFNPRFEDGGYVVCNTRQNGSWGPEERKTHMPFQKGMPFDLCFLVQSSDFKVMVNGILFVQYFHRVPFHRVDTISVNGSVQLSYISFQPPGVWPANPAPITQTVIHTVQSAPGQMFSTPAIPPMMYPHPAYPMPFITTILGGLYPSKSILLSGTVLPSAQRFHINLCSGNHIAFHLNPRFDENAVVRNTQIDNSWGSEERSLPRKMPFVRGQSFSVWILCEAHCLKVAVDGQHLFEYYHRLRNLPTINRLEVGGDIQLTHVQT

These are yes or no findings as the source states them, for the method shown. Some entries that bind do so weakly or less than the wild type. Sequences can lack the tags named with a protein.

The target in this assay is recombinant, full length human Galectin-9 (R&D Systems 2045-GA) (human) (UniProt O00182). Description: ELISA, full length galectin-9 immobilized, CD206 titrated. Background: An ELISA detects its analyte on a solid surface through an enzyme-linked reagent.

B1: recombinant, His-tagged CD206 (receptor, human, UniProt P22897 19-1383, looked up)
chain: LLDTRQFLIYNEDHKRCVDAVSPSAVQTAACNQDAESQKFRWVSESQIMSVAFKLCLGVPSKTDWVAITLYACDSKSEFQKWECKNDTLLGIKGEDLFFNYGNRQEKNIMLYKGSGLWSRWKIYGTTDNLCSRGYEAMYTLLGNANGATCAFPFKFENKWYADCTSAGRSDGWLWCGTTTDYDTDKLFGYCPLKFEGSESLWNKDPLTSVSYQINSKSALTWHQARKSCQQQNAELLSITEIHEQTYLTGLTSSLTSGLWIGLNSLSFNSGWQWSDRSPFRYLNWLPGSPSAEPGKSCVSLNPGKNAKWENLECVQKLGYICKKGNTTLNSFVIPSESDVPTHCPSQWWPYAGHCYKIHRDEKKIQRDALTTCRKEGGDLTSIHTIEELDFIISQLGYEPNDELWIGLNDIKIQMYFEWSDGTPVTFTKWLRGEPSHENNRQEDCVVMKGKDGYWADRGCEWPLGYICKMKSRSQGPEIVEVEKGCRKGWKKHHFYCYMIGHTLSTFAEANQTCNNENAYLTTIEDRYEQAFLTSFVGLRPEKYFWTGLSDIQTKGTFQWTIEEEVRFTHWNSDMPGRKPGCVAMRTGIAGGLWDVLKCDEKAKFVCKHWAEGVTHPPKPTTTPEPKCPEDWGASSRTSLCFKLYAKGKHEKKTWFESRDFCRALGGDLASINNKEEQQTIWRLITASGSYHKLFWLGLTYGSPSEGFTWSDGSPVSYENWAYGEPNNYQNVEYCGELKGDPTMSWNDINCEHLNNWICQIQKGQTPKPEPTPAPQDNPPVTEDGWVIYKDYQYYFSKEKETMDNARAFCKRNFGDLVSIQSESEKKFLWKYVNRNDAQSAYFIGLLISLDKKFAWMDGSKVDYVSWATGEPNFANEDENCVTMYSNSGFWNDINCGYPNAFICQRHNSSINATTVMPTMPSVPSGCKEGWNFYSNKCFKIFGFMEEERKNWQEARKACIGFGGNLVSIQNEKEQAFLTYHMKDSTFSAWTGLNDVNSEHTFLWTDGRGVHYTNWGKGYPGGRRSSLSYEDADCVVIIGGASNEAGKWMDDTCDSKRGYICQTRSDPSLTNPPATIQTDGFVKYGKSSYSLMRQKFQWHEAETYCKLHNSLIASILDPYSNAFAWLQMETSNERVWIALNSNLTDNQYTWTDKWRVRYTNWAADEPKLKSACVYLDLDGYWKTAHCNESFYFLCKRSDEIPATEPPQLPGRCPESDHTAWIPFHGHCYYIESSYTRNWGQASLECLRMGSSLVSIESAAESSFLSYRVEPLKSKTNFWIGLFRNVEGTWLWINNSPVSFVNWNTGDPSGERNDCVALHASSGFWSNIHCSSYKGYICKRPKIIDAKPTHELLTTKADTRKMDPSK
As for B1, the binding entry is recorded as “binds”.
